The supplement of paper PMC6411743
± gives the standard deviation of the averaged measurements. This is a selection; strong and weak results do not stand in their true shares.

Sequences of proteins named here, by UniProt entry; tags and fusion partners are left off. A change or cut given only in a name is not applied to a line headed by its entry.
UniProt Q9BVC6: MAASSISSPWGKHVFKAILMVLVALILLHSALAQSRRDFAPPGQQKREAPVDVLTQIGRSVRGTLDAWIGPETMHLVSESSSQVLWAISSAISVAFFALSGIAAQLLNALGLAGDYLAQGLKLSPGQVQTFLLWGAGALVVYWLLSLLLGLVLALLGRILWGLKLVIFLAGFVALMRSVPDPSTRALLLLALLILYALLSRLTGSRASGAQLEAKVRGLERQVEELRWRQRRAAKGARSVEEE
UniProt Q9BQ52: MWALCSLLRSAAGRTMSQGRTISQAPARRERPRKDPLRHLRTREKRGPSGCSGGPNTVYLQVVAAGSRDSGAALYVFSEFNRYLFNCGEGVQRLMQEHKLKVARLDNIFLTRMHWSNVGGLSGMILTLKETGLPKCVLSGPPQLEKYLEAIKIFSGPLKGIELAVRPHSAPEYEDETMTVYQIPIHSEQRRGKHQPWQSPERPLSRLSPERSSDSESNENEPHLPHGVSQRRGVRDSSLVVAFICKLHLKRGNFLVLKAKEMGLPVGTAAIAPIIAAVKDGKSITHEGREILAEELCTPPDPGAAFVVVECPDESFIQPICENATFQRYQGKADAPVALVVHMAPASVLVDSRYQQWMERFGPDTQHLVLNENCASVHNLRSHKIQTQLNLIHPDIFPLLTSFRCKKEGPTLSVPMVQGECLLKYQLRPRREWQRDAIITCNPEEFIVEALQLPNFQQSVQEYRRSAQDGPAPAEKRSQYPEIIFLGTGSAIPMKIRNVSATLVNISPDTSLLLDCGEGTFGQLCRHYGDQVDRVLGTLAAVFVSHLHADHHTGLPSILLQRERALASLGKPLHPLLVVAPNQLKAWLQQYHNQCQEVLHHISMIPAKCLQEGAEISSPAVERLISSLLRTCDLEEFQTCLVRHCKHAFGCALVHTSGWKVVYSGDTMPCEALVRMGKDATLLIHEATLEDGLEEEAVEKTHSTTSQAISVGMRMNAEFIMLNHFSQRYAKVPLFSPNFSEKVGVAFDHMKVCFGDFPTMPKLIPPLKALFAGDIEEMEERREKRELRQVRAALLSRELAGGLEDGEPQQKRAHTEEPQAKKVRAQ
UniProt Q9BSU1: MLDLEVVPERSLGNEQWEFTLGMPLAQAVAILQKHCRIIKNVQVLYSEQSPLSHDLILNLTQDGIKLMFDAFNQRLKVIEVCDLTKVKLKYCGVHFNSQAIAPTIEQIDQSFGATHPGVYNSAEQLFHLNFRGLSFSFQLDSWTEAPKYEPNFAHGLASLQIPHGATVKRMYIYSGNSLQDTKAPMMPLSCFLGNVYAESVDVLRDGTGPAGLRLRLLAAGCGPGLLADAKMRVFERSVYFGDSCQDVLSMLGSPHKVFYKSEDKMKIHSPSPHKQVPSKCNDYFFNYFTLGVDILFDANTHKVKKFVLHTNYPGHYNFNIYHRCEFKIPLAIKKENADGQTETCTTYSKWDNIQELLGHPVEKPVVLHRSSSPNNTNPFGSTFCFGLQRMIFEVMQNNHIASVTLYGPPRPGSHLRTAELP
UniProt Q9BW83: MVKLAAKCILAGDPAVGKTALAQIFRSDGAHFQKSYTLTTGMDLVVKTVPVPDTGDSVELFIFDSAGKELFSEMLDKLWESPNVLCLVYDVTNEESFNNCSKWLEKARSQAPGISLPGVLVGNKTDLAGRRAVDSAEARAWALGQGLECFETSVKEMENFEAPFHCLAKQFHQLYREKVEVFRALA
UniProt Q9BV29: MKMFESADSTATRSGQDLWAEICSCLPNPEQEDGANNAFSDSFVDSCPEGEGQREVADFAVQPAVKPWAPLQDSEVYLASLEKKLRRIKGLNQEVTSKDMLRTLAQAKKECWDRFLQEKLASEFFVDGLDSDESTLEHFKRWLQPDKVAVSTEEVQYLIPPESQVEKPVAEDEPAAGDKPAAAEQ
UniProt Q9BX67: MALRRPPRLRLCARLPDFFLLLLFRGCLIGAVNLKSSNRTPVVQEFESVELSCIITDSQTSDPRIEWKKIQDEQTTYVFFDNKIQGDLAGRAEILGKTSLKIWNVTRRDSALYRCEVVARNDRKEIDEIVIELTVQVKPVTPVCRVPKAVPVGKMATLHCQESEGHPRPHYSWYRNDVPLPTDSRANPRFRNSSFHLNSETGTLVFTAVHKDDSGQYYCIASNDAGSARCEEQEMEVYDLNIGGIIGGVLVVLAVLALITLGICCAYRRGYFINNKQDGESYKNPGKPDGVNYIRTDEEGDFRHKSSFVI
UniProt Q9BZ95: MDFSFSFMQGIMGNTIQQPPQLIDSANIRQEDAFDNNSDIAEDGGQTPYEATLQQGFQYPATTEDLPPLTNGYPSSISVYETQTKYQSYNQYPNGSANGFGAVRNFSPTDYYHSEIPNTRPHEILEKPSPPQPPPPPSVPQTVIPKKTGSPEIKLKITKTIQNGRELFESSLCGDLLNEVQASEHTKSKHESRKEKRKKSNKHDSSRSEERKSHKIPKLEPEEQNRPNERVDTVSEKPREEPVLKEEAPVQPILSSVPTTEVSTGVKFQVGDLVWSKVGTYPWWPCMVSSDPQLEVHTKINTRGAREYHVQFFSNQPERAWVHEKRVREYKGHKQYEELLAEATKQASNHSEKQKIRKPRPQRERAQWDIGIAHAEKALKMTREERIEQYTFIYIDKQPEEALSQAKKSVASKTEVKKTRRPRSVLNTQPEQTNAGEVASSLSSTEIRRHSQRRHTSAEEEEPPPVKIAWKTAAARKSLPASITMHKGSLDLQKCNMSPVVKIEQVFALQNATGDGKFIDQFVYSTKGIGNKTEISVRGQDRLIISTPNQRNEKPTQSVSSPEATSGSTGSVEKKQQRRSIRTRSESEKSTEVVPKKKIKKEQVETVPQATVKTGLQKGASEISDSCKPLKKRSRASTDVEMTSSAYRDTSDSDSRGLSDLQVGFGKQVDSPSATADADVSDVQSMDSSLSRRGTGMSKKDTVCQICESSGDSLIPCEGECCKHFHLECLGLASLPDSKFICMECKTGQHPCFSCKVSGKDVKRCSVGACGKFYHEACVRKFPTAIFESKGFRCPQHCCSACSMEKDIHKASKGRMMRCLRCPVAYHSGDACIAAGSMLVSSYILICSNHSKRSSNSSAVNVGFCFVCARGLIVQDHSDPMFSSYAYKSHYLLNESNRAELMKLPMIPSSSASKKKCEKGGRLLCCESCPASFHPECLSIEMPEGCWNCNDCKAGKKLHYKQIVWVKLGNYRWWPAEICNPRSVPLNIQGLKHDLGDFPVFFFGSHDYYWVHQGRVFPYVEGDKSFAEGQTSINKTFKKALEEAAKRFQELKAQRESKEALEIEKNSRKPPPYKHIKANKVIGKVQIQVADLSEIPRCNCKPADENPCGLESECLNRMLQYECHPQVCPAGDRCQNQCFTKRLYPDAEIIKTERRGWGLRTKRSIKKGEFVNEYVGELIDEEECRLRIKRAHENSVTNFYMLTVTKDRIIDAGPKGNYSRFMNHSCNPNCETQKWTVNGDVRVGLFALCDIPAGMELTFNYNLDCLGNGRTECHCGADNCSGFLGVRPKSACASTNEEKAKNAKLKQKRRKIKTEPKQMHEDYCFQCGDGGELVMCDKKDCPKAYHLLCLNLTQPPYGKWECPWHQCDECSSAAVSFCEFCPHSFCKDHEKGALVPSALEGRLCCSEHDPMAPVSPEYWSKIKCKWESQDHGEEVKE
UniProt Q9BQ67, whole entry: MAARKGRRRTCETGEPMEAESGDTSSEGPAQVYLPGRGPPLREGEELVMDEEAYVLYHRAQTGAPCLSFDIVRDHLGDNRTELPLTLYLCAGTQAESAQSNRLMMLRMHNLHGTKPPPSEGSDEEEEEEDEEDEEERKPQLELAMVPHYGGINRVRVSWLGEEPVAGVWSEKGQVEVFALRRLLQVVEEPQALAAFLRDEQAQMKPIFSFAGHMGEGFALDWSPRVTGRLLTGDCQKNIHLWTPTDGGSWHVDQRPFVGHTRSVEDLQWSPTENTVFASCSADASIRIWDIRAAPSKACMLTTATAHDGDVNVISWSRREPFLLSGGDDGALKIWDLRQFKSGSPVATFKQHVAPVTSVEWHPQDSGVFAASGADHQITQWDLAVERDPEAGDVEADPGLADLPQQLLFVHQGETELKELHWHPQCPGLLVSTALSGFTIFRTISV
UniProt Q9BU61: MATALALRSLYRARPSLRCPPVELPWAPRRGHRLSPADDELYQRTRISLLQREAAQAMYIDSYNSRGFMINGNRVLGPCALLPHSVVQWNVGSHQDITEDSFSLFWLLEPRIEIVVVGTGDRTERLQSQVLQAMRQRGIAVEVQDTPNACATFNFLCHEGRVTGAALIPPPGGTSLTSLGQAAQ
UniProt Q9BXW7: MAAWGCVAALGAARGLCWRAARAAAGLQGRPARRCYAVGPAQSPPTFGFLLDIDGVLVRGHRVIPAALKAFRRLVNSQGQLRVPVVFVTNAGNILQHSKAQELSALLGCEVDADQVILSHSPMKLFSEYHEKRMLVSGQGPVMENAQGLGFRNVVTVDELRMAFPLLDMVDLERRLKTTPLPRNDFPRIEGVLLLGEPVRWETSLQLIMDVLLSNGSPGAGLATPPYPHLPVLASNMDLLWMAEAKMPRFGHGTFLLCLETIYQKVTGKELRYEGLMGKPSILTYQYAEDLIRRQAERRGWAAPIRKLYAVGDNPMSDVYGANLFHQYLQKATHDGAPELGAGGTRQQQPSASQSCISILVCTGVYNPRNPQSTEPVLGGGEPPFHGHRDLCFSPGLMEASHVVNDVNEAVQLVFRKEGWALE
UniProt Q9BTT6: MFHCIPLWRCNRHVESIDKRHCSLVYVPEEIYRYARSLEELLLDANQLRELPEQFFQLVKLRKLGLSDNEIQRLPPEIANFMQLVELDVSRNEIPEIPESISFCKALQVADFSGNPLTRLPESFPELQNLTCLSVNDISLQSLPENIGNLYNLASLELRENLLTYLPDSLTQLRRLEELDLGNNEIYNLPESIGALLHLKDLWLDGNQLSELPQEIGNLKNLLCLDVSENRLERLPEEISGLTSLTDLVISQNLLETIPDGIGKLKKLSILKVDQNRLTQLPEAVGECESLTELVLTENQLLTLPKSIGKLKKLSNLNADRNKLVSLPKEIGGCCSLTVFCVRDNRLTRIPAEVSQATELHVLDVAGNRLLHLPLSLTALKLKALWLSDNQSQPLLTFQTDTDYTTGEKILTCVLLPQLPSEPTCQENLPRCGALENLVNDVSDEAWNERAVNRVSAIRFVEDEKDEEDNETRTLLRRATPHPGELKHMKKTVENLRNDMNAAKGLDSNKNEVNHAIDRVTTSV
UniProt Q9BRX2, whole entry: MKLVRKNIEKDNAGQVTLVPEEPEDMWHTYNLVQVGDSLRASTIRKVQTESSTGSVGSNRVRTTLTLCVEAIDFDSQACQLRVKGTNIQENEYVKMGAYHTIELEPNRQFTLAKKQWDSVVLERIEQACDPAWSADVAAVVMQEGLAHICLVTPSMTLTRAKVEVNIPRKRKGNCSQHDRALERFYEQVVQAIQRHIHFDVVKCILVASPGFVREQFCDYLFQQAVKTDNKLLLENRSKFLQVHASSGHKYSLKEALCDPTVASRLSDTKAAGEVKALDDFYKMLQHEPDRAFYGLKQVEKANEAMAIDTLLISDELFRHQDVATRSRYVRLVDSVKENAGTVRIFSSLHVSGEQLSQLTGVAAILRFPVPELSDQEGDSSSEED
UniProt Q99717: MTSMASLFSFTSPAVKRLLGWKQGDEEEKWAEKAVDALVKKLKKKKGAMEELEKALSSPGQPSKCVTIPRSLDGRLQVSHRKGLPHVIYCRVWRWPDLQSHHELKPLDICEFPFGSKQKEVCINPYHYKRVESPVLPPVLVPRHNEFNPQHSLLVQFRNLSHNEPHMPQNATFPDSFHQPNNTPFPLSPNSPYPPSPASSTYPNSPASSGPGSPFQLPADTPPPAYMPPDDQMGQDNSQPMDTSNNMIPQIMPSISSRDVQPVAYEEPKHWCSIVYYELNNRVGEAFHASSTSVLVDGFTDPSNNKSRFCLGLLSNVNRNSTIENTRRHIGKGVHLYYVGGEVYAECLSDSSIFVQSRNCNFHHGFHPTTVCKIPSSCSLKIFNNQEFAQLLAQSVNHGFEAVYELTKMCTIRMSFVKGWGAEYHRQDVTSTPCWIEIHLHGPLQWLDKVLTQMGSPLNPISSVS
UniProt Q9BQ69: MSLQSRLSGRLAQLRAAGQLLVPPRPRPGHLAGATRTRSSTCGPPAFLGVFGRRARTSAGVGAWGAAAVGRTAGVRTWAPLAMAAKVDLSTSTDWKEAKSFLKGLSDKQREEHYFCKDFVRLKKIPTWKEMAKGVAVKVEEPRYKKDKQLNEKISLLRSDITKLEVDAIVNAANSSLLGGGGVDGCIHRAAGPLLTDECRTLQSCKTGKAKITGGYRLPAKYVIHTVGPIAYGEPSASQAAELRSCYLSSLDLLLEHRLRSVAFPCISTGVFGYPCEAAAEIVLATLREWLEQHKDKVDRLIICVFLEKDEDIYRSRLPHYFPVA

Compound: Nc1ncnc2c1ncn2[C@@H]1O[C@H](COP(=O)(O)OP(=O)(O)NP(=O)(O)O)[C@@H](O)[C@H]1O [adenylyl imidodiphosphate]
Assay: NP40-soluble protein abundance relative to vehicle (solubility fold change) (ratio); higher = more soluble protein in presence of AMP-PNP
How it was run: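 Across three independent experiments, values are fold changes against the detergent-processed vehicle for each replicate, based on vsn-normalised intensities. The samples were Jurkat crude lysate treated with eight concentrations (0.1 to 10 mM) for 10 min at room temperature and then 3 min at 37 °C. Lysate was solubilised with 0.8% NP40 and benzonase, ultracentrifuged, and the supernatant analysed by TMT-labelled LC-MS/MS.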

Row | Target | NP40-soluble protein abundance (concentration: 1mM) | NP40-soluble protein abundance (concentration: 2mM) | NP40-soluble protein abundance (concentration: 4mM) | NP40-soluble protein abundance (concentration: 6mM) | NP40-soluble protein abundance (concentration: 8mM) | NP40-soluble protein abundance (concentration: 10mM)
1 | TMEM109 (UniProt Q9BVC6) | 0.9777 ± 0.0087 | 0.971 ± 0.043 | 0.935 ± 0.013 | 0.989 ± 0.022 | 0.992 ± 0.036 | 0.955 ± 0.027
2 | UniProt Q9BQ52 and related entries | 1.01 ± 0.014 | 0.985 ± 0.04 | 1.008 ± 0.0077 | 0.994 ± 0.024 | 1.01 ± 0.02 | 1 ± 0.012
3 | C16orf70 (UniProt Q9BSU1) | 1.01 ± 0.056 | 0.978 ± 0.029 | 0.982 ± 0.042 | 1.01 ± 0.018 | 1.02 ± 0.02 | 1.05 ± 0.02
4 | UniProt Q9BW83 and related entries | 1.04 ± 0.017 | 1.02 ± 0.018 | 1.03 ± 0.017 | 0.998 ± 0.012 | 0.976 ± 0.014 | 0.9931 ± 0.0052
5 | UniProt Q9BV29 and related entries | 0.98852 ± 0.0009 | 1.02 ± 0.016 | 0.9655 ± 0.002 | 0.9884 ± 0.0029 | 0.961 ± 0.037 | 0.96 ± 0.038
6 | COPS4 (UniProt Q9BT78) | 0.932 ± 0.057 | 0.939 ± 0.017 | 0.927 ± 0.038 | 0.937 ± 0.086 | 0.967 ± 0.034 | 0.892 ± 0.083
7 | UniProt Q9BX67 | 0.9896 ± 0.0023 | 1.02 ± 0.038 | 0.996 ± 0.011 | 1.022 ± 0.01 | 1.01 ± 0.012 | 1.04 ± 0.057
8 | UniProt Q9BZ95 and related entries | 1.06 ± 0.025 | 1.11 ± 0.015 | 1.12 ± 0.04 | 1.138 ± 0.01 | 1.18 ± 0.035 | 1.22 ± 0.033
9 | GRWD1 (UniProt Q9BQ67) | 1.09 ± 0.064 | 1.01 ± 0.089 | 1.11 ± 0.068 | 1.05 ± 0.043 | 1.11 ± 0.073 | 1.04 ± 0.045
10 | UniProt Q9BU61 and related entries | 0.956 ± 0.031 | 0.898 ± 0.07 | 0.9403 ± 0.0089 | 0.957 ± 0.06 | 0.984 ± 0.052 | 0.941 ± 0.016
11 | UniProt Q9BXW7 and related entries | 1.02 ± 0.033 | 0.944 ± 0.08 | 1.03 ± 0.038 | 0.98 ± 0.015 | 1.05 ± 0.046 | 0.953 ± 0.034
12 | UniProt Q9BTT6 | 1.021 ± 0.0053 | 0.954 ± 0.013 | 0.947 ± 0.013 | 0.989 ± 0.035 | 0.958 ± 0.019 | 0.9599 ± 0.0091
13 | PELO (UniProt Q9BRX2) | 0.972 ± 0.012 | 0.918 ± 0.05 | 0.961 ± 0.025 | 0.977 ± 0.014 | 1.01 ± 0.011 | 0.974 ± 0.016
14 | SMAD5 (UniProt Q99717) | 1.02 ± 0.018 | 1.016 ± 0.0063 | 1.03 ± 0.023 | 0.998 ± 0.011 | 1.026 ± 0.0052 | 1.03 ± 0.05
15 | MACROD1 (UniProt Q9BQ69) | 1.01 ± 0.066 | 1.04 ± 0.069 | 0.966 ± 0.094 | 0.975 ± 0.05 | 0.982 ± 0.062 | 0.949 ± 0.095
16 | MRPL13 (UniProt Q9BYD1) | 0.993 ± 0.073 | 1.01 ± 0.038 | 1.02 ± 0.12 | 0.964 ± 0.13 | 0.959 ± 0.071 | 0.967 ± 0.1
17 | MRPS26 (UniProt Q9BYN8) | 0.988 ± 0.091 | 1.07 ± 0.079 | 0.955 ± 0.051 | 0.948 ± 0.077 | 0.882 ± 0.071 | 0.931 ± 0.064

A second format for some results above:
Row	Target	NP40-soluble protein abundance (concentration: 1mM)	NP40-soluble protein abundance (concentration: 2mM)	NP40-soluble protein abundance (concentration: 4mM)	NP40-soluble protein abundance (concentration: 6mM)	NP40-soluble protein abundance (concentration: 8mM)	NP40-soluble protein abundance (concentration: 10mM)
15	MACROD1 (UniProt Q9BQ69)	1.01 ± 0.066	1.04 ± 0.069	0.966 ± 0.094	0.975 ± 0.05	0.982 ± 0.062	0.949 ± 0.095
16	MRPL13 (UniProt Q9BYD1)	0.993 ± 0.073	1.01 ± 0.038	1.02 ± 0.12	0.964 ± 0.13	0.959 ± 0.071	0.967 ± 0.1
